The text below walks through data of PMC3484135.

The exact form of at least one protein or probe is not confirmed. At least one verdict was read from the data and is not stated in words by the source.

The series deals with E47 HLH. As to the kind of experiment: EMSA. The settings on record: E47 alone, ID2/ID3 assayed as inhibitors of this complex; proteins in 50 mM Tris, 300 mM NaCl, pH 8.0; binding buffer 20 mM Tris pH 8, 50 mM KCl, 1 mM DTT, 1 mM EDTA, 10% glycerol, 0.1 mg/mL BSA; 20 ul, room temperature; recombinant protein; protein details: His-MBP, removed by TEV; label: 5'-Cy5.

As to “GGATCCCCCCAACACCTGCTGCCTGA (double strand) [E-box probe (MCK enhancer type)]”, the binding result is listed as “binds”.
